These results are taken from US20060234229 (published 2006).

A short description of the data set: peptide synthesis. To be noted: whole synthesis.

End groups of sequences in plain letters are not given here.

For APDPFKQGVDTCGK, the “purity (crude or final not stated)” value is recorded as 90%.
The same measure for CAFKQGVDTCGK: 30%.
Consider GCAPDPFKQGVDTCGK, for which the “purity (crude or final not stated)” value is listed as 80%.
The figure for GCASLQGMDTCGK is 60%.
